Earlier results on 1 molecule are cited in patent US8097625B2, “Combination of sedative and a neurotransmitter modulator, and methods for improving sleep quality and treating depression” (priority 2003, dated 2012).

Chains of the proteins cited; added tags and fusions are not shown.
UniProt P23975, whole entry: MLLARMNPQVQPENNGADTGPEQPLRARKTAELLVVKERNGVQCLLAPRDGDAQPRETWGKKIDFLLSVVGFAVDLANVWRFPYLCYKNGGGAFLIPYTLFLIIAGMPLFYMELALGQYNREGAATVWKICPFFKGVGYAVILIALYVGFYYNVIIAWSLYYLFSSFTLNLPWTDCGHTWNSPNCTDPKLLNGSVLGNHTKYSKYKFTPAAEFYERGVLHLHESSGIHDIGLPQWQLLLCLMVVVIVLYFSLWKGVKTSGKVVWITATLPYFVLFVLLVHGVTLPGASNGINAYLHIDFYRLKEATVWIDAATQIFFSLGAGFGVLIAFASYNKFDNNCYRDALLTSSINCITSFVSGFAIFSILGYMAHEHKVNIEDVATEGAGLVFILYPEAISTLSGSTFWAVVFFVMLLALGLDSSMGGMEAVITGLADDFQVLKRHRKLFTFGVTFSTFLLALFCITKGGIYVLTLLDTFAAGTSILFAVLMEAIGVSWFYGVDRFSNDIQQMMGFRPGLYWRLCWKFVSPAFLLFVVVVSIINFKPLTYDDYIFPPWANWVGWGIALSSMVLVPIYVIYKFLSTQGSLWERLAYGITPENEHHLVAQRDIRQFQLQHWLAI
UniProt P31645, whole entry: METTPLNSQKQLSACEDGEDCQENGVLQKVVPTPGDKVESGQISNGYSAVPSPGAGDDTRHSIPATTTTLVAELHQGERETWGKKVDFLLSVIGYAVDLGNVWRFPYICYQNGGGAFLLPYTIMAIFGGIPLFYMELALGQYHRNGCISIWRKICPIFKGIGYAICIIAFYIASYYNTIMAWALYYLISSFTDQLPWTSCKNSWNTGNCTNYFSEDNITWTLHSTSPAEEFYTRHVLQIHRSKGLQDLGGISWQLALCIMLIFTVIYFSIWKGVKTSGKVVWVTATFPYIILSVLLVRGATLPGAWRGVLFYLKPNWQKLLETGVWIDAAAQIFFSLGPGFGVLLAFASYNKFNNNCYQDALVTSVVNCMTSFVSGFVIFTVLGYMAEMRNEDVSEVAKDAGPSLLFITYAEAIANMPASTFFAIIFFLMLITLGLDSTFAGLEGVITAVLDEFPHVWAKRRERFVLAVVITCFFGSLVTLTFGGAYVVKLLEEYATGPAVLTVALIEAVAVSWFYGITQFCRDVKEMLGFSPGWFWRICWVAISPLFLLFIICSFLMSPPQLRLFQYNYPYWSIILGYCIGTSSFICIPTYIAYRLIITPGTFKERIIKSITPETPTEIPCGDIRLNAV
UniProt Q01959, whole entry: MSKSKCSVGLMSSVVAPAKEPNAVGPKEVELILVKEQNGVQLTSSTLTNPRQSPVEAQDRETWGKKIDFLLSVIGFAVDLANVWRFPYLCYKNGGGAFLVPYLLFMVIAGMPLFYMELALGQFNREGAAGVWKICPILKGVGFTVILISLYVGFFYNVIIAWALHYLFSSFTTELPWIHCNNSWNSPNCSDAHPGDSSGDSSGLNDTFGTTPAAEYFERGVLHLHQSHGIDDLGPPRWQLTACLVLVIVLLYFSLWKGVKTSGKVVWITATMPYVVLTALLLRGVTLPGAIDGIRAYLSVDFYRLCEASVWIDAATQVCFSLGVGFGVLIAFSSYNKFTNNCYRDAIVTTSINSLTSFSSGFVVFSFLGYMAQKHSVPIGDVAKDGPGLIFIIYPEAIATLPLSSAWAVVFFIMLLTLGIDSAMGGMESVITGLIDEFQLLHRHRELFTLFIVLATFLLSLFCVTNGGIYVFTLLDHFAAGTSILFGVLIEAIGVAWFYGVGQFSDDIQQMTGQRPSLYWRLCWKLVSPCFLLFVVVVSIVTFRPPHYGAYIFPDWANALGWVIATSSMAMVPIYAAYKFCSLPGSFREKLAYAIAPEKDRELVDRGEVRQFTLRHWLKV

The match of structure and compound is tentative.

In data set [1] the target is norepinephrine transporter (Homo sapiens, UniProt P23975). Conditions: read-out: Ki, norepinephrine transporter; cited from earlier work.
The target of the next data set is serotonin transporter (Homo sapiens, UniProt P31645). Conditions: read-out: Ki, serotonin transporter; cited from earlier work.
The target of a further data set is dopamine transporter (Homo sapiens, UniProt Q01959). To be noted: read-out: IC50, dopamine transporter; cited from earlier work.

Consider `CCC(=O)C1C(c2ccc(C)cc2)CC2CCC1N2C` (stereo not drawn), for which the Ki (in general, the equilibrium dissociation constant of an inhibitor or competing ligand from its target) was 160 nM in data set [1] and 130 nM at serotonin transporter. The IC50 – broadly, the concentration that gives 50% inhibition – at dopamine transporter was 8.2 nM.
